The star is where a group is joined. Doxorubicin(3'-N) = COc1cccc2c1C(=O)c1c(O)c3c(c(O)c1C2=O)C[C@@](O)(C(=O)CO)C[C@@H]3O[C@H]1C[C@H](N*)[C@H](O)[C@H](C)O1; Propanoyl(3-maleimido) = O=C1C=CC(=O)N1CCC(=O)*; PEG6 = NCCOCCOCCOCCOCCOCCOCCC(=O)O

This is an account of results in patent US20230414771A1 (YAFEI SHANGHAI BIOLOGY MEDICINE SCIENCE & TECHNOLOGY CO., …, priority 2020, published 2023).

The data set is described as follows: general procedure: solution-phase peptide synthesis; HBTU/DIPEA; DEPBT/DIPEA.

In the case of “{Propanoyl(3-maleimido)-PEG6}-AANL-{Doxorubicin(3'-N)} (SMILES COc1cccc2c1C(=O)c1c(O)c3c(c(O)c1C2=O)C[C@@](O)(C(=O)CO)C[C@@H]3O[C@H]1C[C@H](NC(=O)[C@H](CC(C)C)NC(=O)[C@H](CC(N)=O)NC(=O)[C@H](C)NC(=O)[C@H](C)NC(=O)CCOCCOCCOCCOCCOCCOCCNC(=O)CCN2C(=O)C=CC2=O)[C@H](O)[C@H](C)O1)”, where the note is “conjugation step”, the conjugation yield turned out to be 34.2%. In the case of Cbz-AAN (trt)-L-Otbu, the step yield (coupling step, total yield of the first two steps) was found to be 37.8%.
